No constants are given. Whether binding was seen depends on the method and setting. In cells and extracts the contact can be indirect. Binding can be weak; no strength is given.
Target: GST-AIP4 fusion protein (human)
Experiment: pull-down; GST-AIP4 or control GST on glutathione-agarose beads; 35S-labelled in vitro translation products incubated 2 hours at 4°C in 1% Triton-containing buffer; SDS-PAGE and fluorography; Notch ICs tested alone and with DTX (0.5 or 3 µl) or numb; only the target purified

B1: DTX (Deltex) (protein, UniProt Q86Y01 1-620)
chain: MSRPGHGGLMPVNGLGFPPQNVARVVVWEWLNEHSRWRPYTATVCHHIENVLKEDARGSVVLGQVDAQLVPYIIDLQSMHQFRQDTGTMRPVRRNFYDPSSAPGKGIVWEWENDGGAWTAYDMDICITIQNAYEKQHPWLDLSSLGFCYLIYFNSMSQMNRQTRRRRRLRRRLDLAYPLTVGSIPKSQSWPVGASSGQPCSCQQCLLVNSTRAASNAILASQRRKAPPAPPLPPPPPPGGPPGALAVRPSATFTGAALWAAPAAGPAEPAPPPGAPPRSPGAPGGARTPGQNNLNRPGPQRTTSVSARASIPPGVPALPVKNLNGTGPVHPALAGMTGILLCAAGLPVCLTRAPKPILHPPPVSKSDVKPVPGVPGVCRKTKKKHLKKSKNPEDVVRRYMQKVKNPPDEDCTICMERLVTASGYEGVLRHKGVRPELVGRLGRCGHMYHLLCLVAMYSNGNKDGSLQCPTCKAIYGEKTGTQPPGKMEFHLIPHSLPGFPDTQTIRIVYDIPTGIQGPEHPNPGKKFTARGFPRHCYLPNNEKGRKVLRLLITAWERRLIFTIGTSNTTGESDTVVWNEIHHKTEFGSNLTGHGYPDASYLDNVLAELTAQGVSEAAAKA
Question: How did the binding turn out when B1 was run?
Answer: Its binding is “binds”.

B2: numb (protein, UniProt P49757 1-651)
chain: MNKLRQSFRRKKDVYVPEASRPHQWQTDEEGVRTGKCSFPVKYLGHVEVDESRGMHICEDAVKRLKAERKFFKGFFGKTGKKAVKAVLWVSADGLRVVDEKTKDLIVDQTIEKVSFCAPDRNFDRAFSYICRDGTTRRWICHCFMAVKDTGERLSHAVGCAFAACLERKQKREKECGVTATFDASRTTFTREGSFRVTTATEQAEREEIMKQMQDAKKAETDKIVVGSSVAPGNTAPSPSSPTSPTSDATTSLEMNNPHAIPRRHAPIEQLARQGSFRGFPALSQKMSPFKRQLSLRINELPSTMQRKTDFPIKNAVPEVEGEAESISSLCSQITNAFSTPEDPFSSAPMTKPVTVVAPQSPTFQANGTDSAFHVLAKPAHTALAPVAMPVRETNPWAHAPDAANKEIAATCSGTEWGQSSGAASPGLFQAGHRRTPSEADRWLEEVSKSVRAQQPQASAAPLQPVLQPPPPTAISQPASPFQGNAFLTSQPVPVGVVPALQPAFVPAQSYPVANGMPYPAPNVPVVGITPSQMVANVFGTAGHPQAAHPHQSPSLVRQQTFPHYEASSATTSPFFKPPAQHLNGSAAFNGVDDGRLASADRHTEVPTGTCPVDPFEAQWAALENKSKQRTNPSPTNPFSSDLQKTFEIEL
Question: Which binding does the source give for B2 here?
Answer: Its binding is “binds”.
